Measurements reported in PubChem BioAssay AID743454 (Peter MacCallum Cancer Centre, 2014).

Test: 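Search for knock-downs that restore vorinostat killing in resistant colon cancer cells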 (primary screen)
Cell system: human HCT116-VR colon cancer cells, selected for vorinostat resistance
Reagent: siRNA pool against human genes, 40 nM siRNA pool
Duration: vorinostat for 24 h, read-out about 72 h after transfection
Conditions: vorinostat at 2.5 µM final
Measurement: 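Two measures, CellTiter-Fluor viability and luminescent caspase 3/7 activity, each as fold change against same-plate mock wells, mean of duplicates, then screen-wide robust z-score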
Reading the numbers: viability robust z-score: higher = more viable cells than screen typical; caspase robust z-score: higher = more caspase 3/7 activity than screen typical
Call rule: 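a knock-down is a hit when classed RV1 or RV2 for lowered viability, or CA1 or CA2 for caspase activation; those lethal without drug were dropped; hits were retested singly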
Shown is an unselected part of about 18,000 reagents tested. Of all reagents, 450 (2.5%) are marked active. 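Single biological run; no consistent viability z cut-off exists, so the class columns, not z-scores, define the calls.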

The first 7 records as a preview:
gene | viability hit class | caspase hit class | viability robust z-score | caspase robust z-score | Outcome
TCEAL6 (transcription elongation factor A like 6) | no change | no change | 0.21 | 0.14 | inactive
HS3ST6 (heparan sulfate-glucosamine 3-sulfotransferase 6) | no change | no change | -0.77 | -0.52 | inactive
SOS1 (SOS Ras/Rac guanine nucleotide exchange factor 1) | no change | no change | -0.97 | -0.34 | inactive
WFDC10B (WAP four-disulfide core domain 10B) | no change | no change | -1.48 | 0.06 | inactive
ABCB8 (ATP binding cassette subfamily B member 8) | no change | no change | -0.44 | 0.91 | inactive
PRIMA1 (proline rich membrane anchor 1) | no change | no change | -0.97 | 2.77 | inactive
TAF7 (TATA-box binding protein associated factor 7) | no change | no change | -0.31 | -0.48 | inactive

Main list, from the first entry:
gene | viability hit class | caspase hit class | viability robust z-score | caspase robust z-score | Outcome
TCEAL6 (transcription elongation factor A like 6) | no change | no change | 0.21 | 0.14 | inactive
HS3ST6 (heparan sulfate-glucosamine 3-sulfotransferase 6) | no change | no change | -0.77 | -0.52 | inactive
SOS1 (SOS Ras/Rac guanine nucleotide exchange factor 1) | no change | no change | -0.97 | -0.34 | inactive
WFDC10B (WAP four-disulfide core domain 10B) | no change | no change | -1.48 | 0.06 | inactive
ABCB8 (ATP binding cassette subfamily B member 8) | no change | no change | -0.44 | 0.91 | inactive
PRIMA1 (proline rich membrane anchor 1) | no change | no change | -0.97 | 2.77 | inactive
TAF7 (TATA-box binding protein associated factor 7) | no change | no change | -0.31 | -0.48 | inactive
PJA1 (praja ring finger ubiquitin ligase 1) | no change | no change | 1.4 | -0.63 | inactive
CLDN2 (claudin 2) | no change | no change | -0.44 | 0.46 | inactive
NPBWR2 (neuropeptides B and W receptor 2) | no change | CA2 (caspase activation) | 0.11 | 5.77 | active
GADL1 (GAD like acidic amino acid decarboxylase 1) | no change | no change | 0.64 | 0 | inactive
KIF27 (kinesin family member 27) | no change | no change | 0.08 | -0.97 | inactive
FSTL5 (follistatin like 5) | no change | no change | 0.24 | -0.46 | inactive
KCNIP4 (potassium voltage-gated channel interacting protein 4) | no change | no change | -0.73 | -0.64 | inactive
GC (GC vitamin D binding protein) | no change | no change | 0.09 | 1.03 | inactive
ZNF584 (zinc finger protein 584) | no change | no change | -0.64 | -0.38 | inactive
PP2D1 (protein phosphatase 2C like domain containing 1) | no change | no change | 0.98 | -0.66 | inactive
SLC12A1 | no change | no change | 1.17 | 0.56 | inactive
DIAPH3 (diaphanous related formin 3) | no change | no change | 0.48 | 0.31 | inactive
MBD1 (methyl-CpG binding domain protein 1) | no change | no change | -0.4 | -0.36 | inactive
NUP88 (nucleoporin 88) | no change | no change | -1.1 | 1.76 | inactive
ARRDC4 (arrestin domain containing 4) | no change | no change | 0.2 | -1.04 | inactive
RAB33B (RAB33B, member RAS oncogene family) | no change | no change | -0.36 | 2.29 | inactive
ADH5 (alcohol dehydrogenase 5 (class III), chi polypeptide) | no change | no change | -1.89 | 0.55 | inactive
TRIM3 (tripartite motif containing 3) | no change | no change | -1.54 | 4.18 | inactive
HIP1 (huntingtin interacting protein 1) | no change | no change | -0.66 | -0.49 | inactive
NCKIPSD (NCK interacting protein with SH3 domain) | no change | no change | 0.15 | -0.77 | inactive
COL11A1 (collagen type XI alpha 1 chain) | no change | no change | 1.28 | 1.83 | inactive
TAAR2 (trace amine associated receptor 2) | no change | no change | -0.07 | -0.13 | inactive
MSI1 (musashi RNA binding protein 1) | no change | no change | -0.54 | 0.9 | inactive
CHMP6 (charged multivesicular body protein 6) | no change | no change | 0.32 | 0.34 | inactive
SMARCAD1 (SNF2 related chromatin remodeling ATPase with DExD box 1) | no change | no change | 0.92 | 1 | inactive
FTMT (ferritin mitochondrial) | no change | no change | -2.19 | -1.5 | inactive
GPX8 (glutathione peroxidase 8 (putative)) | no change | no change | 1.21 | -0.74 | inactive
SYNE1 (spectrin repeat containing nuclear envelope protein 1) | no change | no change | -0.05 | -0.94 | inactive
PRKAR2A | no change | no change | 0.42 | 2.08 | inactive
TYMS (thymidylate synthetase) | no change | no change | -0.88 | -0.62 | inactive
CEP350 (centrosomal protein 350) | no change | no change | 0.61 | -0.67 | inactive
TCERG1L (transcription elongation regulator 1 like) | no change | no change | -0.24 | 2.54 | inactive
VIPR2 (vasoactive intestinal peptide receptor 2) | no change | no change | 0.04 | -1.1 | inactive
KLRD1 (killer cell lectin like receptor D1) | no change | no change | -1.98 | 0.12 | inactive
UCP2 (uncoupling protein 2) | no change | no change | -0.15 | -0.35 | inactive
GARIN1B (golgi associated RAB2 interactor 1B) | no change | no change | 1.46 | -0.52 | inactive
UNK (unk zinc finger) | no change | no change | 1.06 | 0.8 | inactive
STING1 (stimulator of interferon response cGAMP interactor 1) | no change | no change | 0.62 | 2.08 | inactive
MAGEA6 (MAGE family member A6) | no change | no change | 1.22 | -0.15 | inactive
NPAP1 (nuclear pore associated protein 1) | no change | no change | -1.38 | 1.32 | inactive
IL11RA (interleukin 11 receptor subunit alpha) | no change | no change | 1.07 | -0.55 | inactive
SNTN (sentan, cilia apical structure protein) | no change | no change | -0.02 | -0.16 | inactive
KCNQ1 (potassium voltage-gated channel subfamily Q member 1) | no change | no change | -0.76 | 0.21 | inactive
PFDN2 (prefoldin subunit 2) | no change | no change | 0.78 | 0.6 | inactive
NCOR1 (nuclear receptor corepressor 1) | no change | no change | 0.68 | 1.06 | inactive
DCAKD (dephospho-CoA kinase domain containing) | no change | no change | 0.65 | -0.13 | inactive
H2BC10 (H2B clustered histone 10) | no change | no change | 0.73 | 4.62 | inactive
OR6C2 (olfactory receptor family 6 subfamily C member 2) | no change | no change | -1.01 | 0.12 | inactive
CGREF1 (cell growth regulator with EF-hand domain 1) | no change | no change | 1.17 | -1.13 | inactive
DIRAS2 (DIRAS family GTPase 2) | no change | no change | -0.72 | 3.05 | inactive
CCL27 (C-C motif chemokine ligand 27) | no change | no change | 0.45 | 0.92 | inactive
MMP14 (matrix metallopeptidase 14) | no change | no change | -0.34 | -0.39 | inactive
DNAJC19 (DnaJ heat shock protein family (Hsp40) member C19) | no change | no change | -0.76 | -1.07 | inactive
BPIFB6 (BPI fold containing family B member 6) | no change | no change | 0.54 | -1.03 | inactive
AHR (aryl hydrocarbon receptor) | no change | no change | -1.12 | 0.38 | inactive
IRF4 (interferon regulatory factor 4) | no change | no change | 1.16 | -0.78 | inactive
SLC19A4P | no change | no change | -0.22 | -1.12 | inactive
TMBIM1 (transmembrane BAX inhibitor motif containing 1) | no change | no change | 1.12 | -0.71 | inactive
ATP5PB (ATP synthase peripheral stalk-membrane subunit b) | no change | no change | -1.54 | 1.61 | inactive
ALG5 (ALG5 dolichyl-phosphate beta-glucosyltransferase) | no change | no change | 0.5 | -0.09 | inactive
RBFA (ribosome binding factor A) | no change | no change | -0.81 | 4.9 | inactive
NUBP1 (NUBP iron-sulfur cluster assembly factor 1, cytosolic) | no change | no change | 0.44 | -0.06 | inactive
DPY19L4 (dpy-19 like 4) | no change | no change | 1.48 | 0.24 | inactive
SLC30A10 | no change | no change | -0.32 | -0.3 | inactive
ZNF585B (zinc finger protein 585B) | no change | no change | -1.44 | -0.5 | inactive
GMPPA (GDP-mannose pyrophosphorylase A) | no change | no change | -1.05 | 2.27 | inactive
